Patent publication US20160223554A1, “METHODS FOR DIAGNOSIS, PROGNOSIS AND METHODS OF TREATMENT” (priority 2011, published 2016)
For at least one compound, name, drawing or mass did not settle the structure.

Assays:
AML leukemic cells = assay: Apotosis/Cytostasis Arm with kinase inhibitors (Example 13); assay type: cell-based, human; details: two samples with modest SCF and G-CSF but robust Flt3L signaling; 1 uM; single agent and combination; 48-hr
Text: All results were compared with results from bone marrow samples from healthy donors (N=6).

AML blasts = assay: DNA damage response (p-H2AX, p-Chk2) to chemotherapeutics in primary AML samples (Example 20); assay type: cell-based, human
Description: Cryopreserved peripheral blood (PBMC) or bone marrow (BMMC) mononuclear cells were obtained from patients with a new diagnosis of AML treated at British Columbia Cancer Agency or Lucile Packard Children's Hospital at Stanford University. All patients provided informed consent for research purposes. […] In this study, cellular DNA damage repair (DDR) and apoptosis were measured simultaneously in AML blasts after exposure to chemotherapeutic agents. Antibodies against phosphorylated (p)-H2AX or p-Chk2 were used to measure the DDR to DSB, while simultaneous measurements of cleaved PARP (c-PARP) and amine aqua viability dye were used to quantify apoptosis and cell death. Chemotherapeutics included Ara-C/Dauno (the two drugs currently used in standard AML induction therapy), Gemtuzumab Ozogamicin (GO), and three other agents currently being evaluated in AML clinical trials [Decitabine (DEC), 5-azacytidine (AZA) and Clofarabine (CLO)]. […] Drug-specific incubation times were chosen to analyze both DDR and apoptosis readouts: Ara-C/Dauno (24 hours), GO, CLO, AZA, DEC (48 hours). […] PI3Kinase/Akt and Raf/Ras pathway activities were assessed using stem cell factor (SCF) induced p-Akt and p-Erk readouts. […]

Row | Compound | sensitivity to cytostatic effects of kinase inhibitor (AML leukemic cells) | timing of induced DNA damage (pH2AX) relative to apoptosis (AML blasts)
1 | COc1cc2c(N3CCN(C(=O)Nc4ccc(OC(C)C)cc4)CC3)ncnc2cc1OCCCN1CCCCC1 [tandutinib] | particularly sensitive | 
2 | Nc1ncn([C@H]2C[C@H](O)[C@@H](CO)O2)c(=O)n1 [DEC] |  | coincident with apoptosis
